Data from the supplement of paper PMC3334620.
In all, about 33,000 sequences were measured (“E-score (-0.5 to 0.5)”: median about -0.016, highest 2% from about 0.3 on). Some of the results follow.

What follows are sequences tested against T1, Yer184c (UniProt P39961) (assay: PBM E-score (8-mer binding enrichment) (E-score (-0.5 to 0.5)); higher = stronger / more preferred TF binding). Details: protein concentration: 100 nM; construct: GST-full length.
T1 sequence: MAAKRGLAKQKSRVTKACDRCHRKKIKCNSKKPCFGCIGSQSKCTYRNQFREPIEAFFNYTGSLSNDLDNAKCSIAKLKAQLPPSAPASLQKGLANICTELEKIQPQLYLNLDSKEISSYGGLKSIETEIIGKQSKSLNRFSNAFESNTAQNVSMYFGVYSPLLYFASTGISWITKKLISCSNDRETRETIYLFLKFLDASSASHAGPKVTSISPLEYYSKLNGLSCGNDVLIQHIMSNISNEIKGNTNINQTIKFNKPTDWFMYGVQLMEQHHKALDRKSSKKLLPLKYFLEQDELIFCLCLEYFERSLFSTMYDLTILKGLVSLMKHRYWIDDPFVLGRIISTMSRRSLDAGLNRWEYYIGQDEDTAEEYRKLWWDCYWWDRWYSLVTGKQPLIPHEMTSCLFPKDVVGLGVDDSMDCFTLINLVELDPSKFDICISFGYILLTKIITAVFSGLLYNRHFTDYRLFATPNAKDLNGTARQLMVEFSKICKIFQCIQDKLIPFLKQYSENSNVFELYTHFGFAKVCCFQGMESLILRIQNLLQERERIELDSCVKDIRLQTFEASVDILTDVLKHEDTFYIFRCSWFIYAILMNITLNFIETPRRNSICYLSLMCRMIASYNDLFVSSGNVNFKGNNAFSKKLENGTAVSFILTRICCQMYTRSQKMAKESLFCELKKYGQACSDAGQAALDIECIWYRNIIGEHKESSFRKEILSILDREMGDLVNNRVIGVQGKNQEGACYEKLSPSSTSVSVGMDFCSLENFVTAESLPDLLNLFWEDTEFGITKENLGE
Procedure: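 Universal 'all 10-mer' protein binding microarrays (Agilent AMADID 015681) probed with GST-tagged S. cerevisiae TFs (full-length or DBD) made by in vitro transcription/translation (PURExpress), about 100-200 nM. Bound TF was detected with fluorescent anti-GST. Each ungapped 8-mer (which stands for itself and its reverse complement) is scored by the PBM enrichment score (E-score), a modified Wilcoxon-Mann-Whitney statistic from -0.5 to +0.5, computed with the Universal PBM Analysis Suite. Scale: above 0.35 generally sequence-specific binding.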

| Sequence | PBM E-score |
| --- | --- |
| CAGGTTAG | -0.18 |
| ATATCTAG | -0.0546 |
| ATTCGCCG | 0.334 |
| CGCGTAAG | 0.0146 |
| CGACACCA | -0.0215 |
| CAGCGCCA | -0.158 |
| GTAGCGAA | 0.0477 |
| CAATTATC | 0.205 |
| CGATAGAG | -0.0138 |
| CGCACTCA | 0.119 |
| ATTCCAAA | 0.015 |
| GGCCGGCA | 0.415 |
| TGACCACA | -0.244 |
| AAACATAG | -0.121 |
| ACTTCTAG | -0.28 |
| CCATTGTC | -0.104 |
| AAGTGCGG | 0.0901 |
| ATTGGGGG | -0.238 |
| AGCCGTAG | 0.155 |
| ACATGTTC | -0.0591 |
| GCCAGTAA | -0.0434 |
| ACAATAGA | 0.0591 |
| AATTGTGC | 0.00487 |
| CGGCCGCC | 0.209 |
| CCTATCGA | -0.107 |

| Sequence | PBM E-score |
| --- | --- |
| CTCCCACC | -0.232 |
| GAGGCCGA | 0.0757 |
| CGTCAGGC | -0.07 |
| GCGTACGA | 0.0312 |
| TAATAGGA | 0.0974 |
| CGTCTAGA | -0.0942 |
| ACTTTATG | 0.0373 |
| GATGCCAA | -0.105 |
| CGTGCTCA | 0.091 |
| CCACGACG | 0.0318 |
| ACAACAGA | -0.0576 |
| CGTACTTC | 0.0247 |
| ATAGGCAG | 0.0342 |
| TACCCGAA | 0.152 |
| CGCACCTA | -0.0756 |
| ACATATCG | -0.136 |
| GAGGTTCA | 0.112 |
| CATTTCTC | 0.00217 |
| TGAGAAAA | 0.0785 |
| GCACTGCC | -0.0143 |
| AACCCCCA | -0.269 |
| AAACCGAT | 0.0874 |
| CAGCGGCC | -0.0548 |
| CGTTATAG | -0.00732 |
| ATGTGGTG | 0.0296 |

| Sequence | PBM E-score |
| --- | --- |
| GCGGCTCA | 0.2 |
| CCCTGCGC | -0.231 |
| AAACTATG | -0.141 |
| ACGTTAAA | 0.12 |
| TCGTGTCA | -0.0881 |
| ACTGATTA | 0.00495 |
| CGTTAAAG | 0.0703 |
| CGTGCTTC | 0.102 |
| CCACGTAG | -0.379 |
| AAGACCAA | 0.052 |
| AAGGGGCG | -0.4 |
| GCGCTTCA | -0.0076 |
| GAGACTGC | -0.127 |
| ATCACCCC | -0.149 |
| AACTTATC | 0.11 |
| GCGCGTCC | -0.061 |
| AGCCCAGA | -0.174 |
| CTAAAAAC | -0.00322 |
| CCTAGCCG | 0.155 |
| AGGATCCT | 0.0958 |
| CTGTACAG | 0.0889 |
| CTTTGGGA | -0.0679 |
| CGAAGCTA | 0.1 |
| GCAACAAA | 0.185 |
| CCGACAGA | 0.265 |

| Sequence | PBM E-score |
| --- | --- |
| CGCCTCTA | -0.0607 |
| CCCCACAA | -0.0876 |
| ACATTACG | 0.0913 |
| ATGCTTGC | -0.085 |
| ACGACCAC | -0.0916 |
| AGAGGCGC | -0.119 |
| GGCTAGAA | 0.124 |
| ACGCCCCT | -0.366 |
| AGAGTGAA | 0.127 |
| CGGCGCCC | 0.125 |
| GAGCTCAA | 0.222 |
| ATCGGGGA | -0.105 |
| AGCGGATA | 0.0602 |
| CGGCTCTC | -0.0248 |
| CTAACAAG | 0.0319 |
| ACGTTCCT | 0.0367 |
| GGAATACA | 0.158 |
| ACCAAGAG | -0.166 |
| ATGTTAAG | 0.0135 |
| ACGAGCTA | -0.0123 |
| GAAATCCC | -0.0142 |
| GGTCTGGA | -0.132 |
| CTTCCACA | 0.0409 |
| ATCGCCAC | -0.162 |
| AGGATTAC | 0.012 |

| Sequence | PBM E-score |
| --- | --- |
| CCTAAAAC | -0.106 |
| TACTCATA | -0.0379 |
| CAGGCGCC | -0.0332 |
| GCCATAAC | -0.109 |
| AAGCGCAC | -0.175 |
| CTTGATAC | -0.0505 |
| GAGCACTC | -0.0845 |
| GGACACCA | -0.0551 |
| AACATCTC | 0.0243 |
| GCTCCAAC | -0.0068 |
| GTAACCTA | 0.188 |
| ACGATCAG | -0.113 |
| CTGAGCCA | -0.257 |
| TGAAAGCA | 0.0124 |
| AACGAAAC | 0.0384 |
| GGGCCCTA | -0.145 |
| GGCGTCAC | -0.2 |
| AAACTTTG | 0.184 |
| CAACTAAA | 0.0514 |
| AACGAGTT | -0.0437 |
| CCCATTGA | -0.134 |
| GCCATCAC | -0.171 |
| ATGTATGA | 0.0211 |
| GCACTCTA | -0.12 |
| CGAGGCTA | 0.0172 |

| Sequence | PBM E-score |
| --- | --- |
| CAAGTAAC | -0.0721 |
| CAACCAGA | -0.0522 |
| AGCCTTGG | -0.239 |
| CCCAGAAG | -0.00752 |
| AACTAGTA | -0.0163 |
| AGAATACT | 0.147 |
| AAGTGTCC | 0.054 |
| ACATAGGG | -0.274 |
| GCTTTACA | 0.118 |
| CGGATCAG | 0.224 |
| GATAAACA | 0.104 |
| CAACATCG | 0.0608 |
| ACGGGTAT | 0.105 |
| GGCAACTA | 0.102 |
| AGTCAAAC | -0.0777 |
| GCAAACAA | 0.131 |
| AATTCGGA | 0.343 |
| CTCGTTAA | -0.0488 |
| GGCGTCCA | -0.109 |
| CAACGTTG | 0.243 |
| ATCTTTGC | 0.17 |
| ACGTTTAA | 0.0701 |
| CCCTCGAA | -0.337 |
| GCAACTTA | 0.17 |
| GTGCTAAA | 0.0711 |

| Sequence | PBM E-score |
| --- | --- |
| ACCACTAC | -0.213 |
| CATAGCCG | 0.298 |
| AATGACCA | 0.0991 |
| CGTGCACA | -0.147 |
| AGTTCGAC | 0.0229 |
| TCGGAAAA | 0.382 |
| GCTCCGCA | 0.0792 |
| ATGCATTC | 0.124 |
| AGCCAACG | 0.0356 |
| AGCGAACT | -0.2 |
| GACATATC | 0.0297 |
| CAGAACAA | 0.209 |
| CCTCGAGC | -0.0425 |
| CCCAGGAG | -0.333 |
| CCAGGGCA | -0.272 |
| ACGGGATA | 0.101 |
| ATAAGGTC | -0.0447 |
| AGTACTTA | -0.0328 |
| GCATGACC | -0.175 |
| GACCGTCA | -0.0487 |
| TATGAATA | 0.0415 |
| AGTACCTA | -0.0132 |
| GTAAACAC | 0.156 |
| AGTTAACA | 0.233 |
| CACTTTCA | -0.0416 |

Fetched one by one from above, 7 records:

| Sequence | PBM E-score |
| --- | --- |
| AGTACCTA | -0.0132 |
| GCATGACC | -0.175 |
| AGTTAACA | 0.233 |
| GCTCCGCA | 0.0792 |
| AGTACTTA | -0.0328 |
| CGTGCACA | -0.147 |
| CCAGGGCA | -0.272 |

Next part:

| Sequence | PBM E-score |
| --- | --- |
| ATAGGGCA | -0.168 |
| CCATACCG | -0.0159 |
| AACAGCAT | -0.0933 |
| ATGCCACA | -0.0312 |
| GGAGGTAC | -0.191 |
| CCCCATTC | -0.195 |
| GAAACTGC | -0.0125 |
| CGAGTTCC | 0.115 |
| TAATCATA | 0.157 |
| CCACCAGC | -0.108 |
| GACGCCGA | 0.198 |
| GCCGGGAC | 0.263 |
| AGGAGCGG | -0.269 |
| AAGGCCAC | -0.302 |
| ACCAATAC | -0.112 |
| TTAACAAA | 0.25 |
| CGATACAA | 0.113 |
| AGAGAGCA | -0.127 |
| CACAAATA | 0.265 |
| GCGTCGCA | -0.0328 |
| AGGGTGCG | -0.222 |
| CCGCGCGG | 0.386 |
| CGGGTCCA | -0.171 |
| ACAATACA | 0.108 |
| GCCCGCTA | -0.0914 |

| Sequence | PBM E-score |
| --- | --- |
| CGAATTAC | 0.145 |
| TGATGACA | -0.0581 |
| TCCCGCGA | 0.0597 |
| ACTTATGC | -0.0144 |
| GAGATATC | 0.0236 |
| CGCCGTAG | 0.157 |
| CAAAACTC | 0.0921 |
| GGCGAACC | -0.0337 |
| AGAGACGG | 0.0246 |
| AGGTGTGA | -0.19 |
| ATAGCAAC | -0.00353 |
| AAGAGGGA | -0.333 |
| CGACGCAA | -0.028 |
| TCGCCGCA | 0.0686 |
| ACTAGTGG | -0.212 |
| AGTCTGTC | -0.084 |
| TAGGCGAA | -0.115 |
| AGGACCTA | -0.031 |
| CAGGGCGG | -0.115 |

Rewritten tab-delimited: part of the list above.
Sequence	PBM E-score
TCCCGCGA	0.0597
ACTTATGC	-0.0144
GAGATATC	0.0236
CGCCGTAG	0.157
